Source: PubChem BioAssay AID1671190 (National Center for Advancing Translational Sciences (NCATS), 2021)
“And” between values parts separate entries of the source, which are not always exact repeats. Equal values may be shown once. Hit rate of the full screen: of about 580,000 compounds, about 6,100 (1.1%) were called active. This list was built around the results that the source calls inconclusive (neither active nor inactive); the mix of calls is not that of the screen. Calls follow the shape of the dose curve; as a rule, active = well fitted inhibition curve with a large enough effect; inconclusive = small, poorly fitted or top-dose-only effect, or another doubt; inactive = no such curve, though single readings can be large or run the other way. A potency beside an inconclusive call is a rough fit, not a confirmed value.

Chains of the proteins cited; added tags and fusions are not shown. Lines headed by an entry give the natural chain unless they say otherwise; changes in a name come on top.
UniProt P18054: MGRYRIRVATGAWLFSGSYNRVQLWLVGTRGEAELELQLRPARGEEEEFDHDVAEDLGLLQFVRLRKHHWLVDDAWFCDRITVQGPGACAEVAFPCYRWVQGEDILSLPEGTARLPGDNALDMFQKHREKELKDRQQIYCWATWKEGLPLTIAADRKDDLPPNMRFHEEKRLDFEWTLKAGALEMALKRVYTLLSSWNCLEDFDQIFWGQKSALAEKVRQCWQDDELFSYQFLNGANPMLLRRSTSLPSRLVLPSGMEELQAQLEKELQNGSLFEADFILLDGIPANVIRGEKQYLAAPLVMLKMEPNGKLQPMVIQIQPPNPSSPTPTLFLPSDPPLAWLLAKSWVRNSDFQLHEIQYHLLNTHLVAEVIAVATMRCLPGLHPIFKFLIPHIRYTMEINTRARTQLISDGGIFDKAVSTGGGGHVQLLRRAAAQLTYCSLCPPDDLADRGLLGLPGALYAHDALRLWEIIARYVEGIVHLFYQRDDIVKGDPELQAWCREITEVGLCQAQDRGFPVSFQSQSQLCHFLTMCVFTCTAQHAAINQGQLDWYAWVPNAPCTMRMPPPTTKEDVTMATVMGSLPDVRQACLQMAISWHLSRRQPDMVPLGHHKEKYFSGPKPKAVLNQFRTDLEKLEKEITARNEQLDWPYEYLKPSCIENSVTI

The compounds below were run against Polyunsaturated fatty acid lipoxygenase ALOX12 (Homo sapiens) (UniProt P18054) (assay: Primary qHTS assay for inhibitors of human arachidonate 12S-lipoxygenase (ALOX12): Round 2). Conditions: purified 12hLO, xylenol orange hydroperoxide absorbance; activity change, negative = inhibition: at 108 µM (top of the series) unless noted.
How it was run: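 Purified human 12hLO at 150 nM in 25 mM Hepes, 0.01% Triton X-100, pH 7.0, preincubated 15 min at room temperature with compound. Reaction started with 40 uM arachidonic acid, 30 min at room temperature. Hydroperoxide measured by Fe-xylenol orange, 573/405 nm absorbance ratio.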
% is scaled to controls: 0 for no effect and ±100 for the full control effect; potency is read from the fitted curve at half-maximal effect.

Row | Structure (SMILES) | Potency | activity change, negative = inhibition
1 | CCOC(=O)c1ccc(NC(=O)C2(S(=O)(=O)c3ccc(Cl)cc3)CC2)cc1 | inconclusive: 50.1 µM [inhibitor, partial curve, poor fit] | 
2 | Cc1ccc(NC(=O)[C@@H](C)NC(=O)[C@@H]2Cc3ccccc3CN2)cc1 |  | inactive: 11.3%
3 | COc1ccccc1NC(=S)NC(=O)CCCOc1ccc(Cl)cc1Cl | inconclusive: 28.2 µM [inhibitor, partial curve, poor fit] | 
4 | CCCCCc1c2c(cc(O)c1C(=O)O)OC(=O)c1cc(C(=O)CCCC)c(OC)cc1O2 | inconclusive: 39.8 µM [inhibitor, partial curve, poor fit] and inconclusive: 31.6 µM [inhibitor, full curve, poor fit] | 
5 | Cc1ccc(/C=C/C(=O)C2C(=O)c3ccccc3C2=O)cc1 | inconclusive: 25.1 µM [inhibitor, full curve, poor fit] | 
6 | C=C(C)C1CC=C(C)C(COc2ccc3ccc(=O)oc3c2)C1(C)CCC(=O)OC (centres undefined) |  | inactive: -18.3%
7 | C=C1CCN([C@@H](CC(C)C)C(=O)NCCC(C)C)S(=O)(=O)c2ccccc21 |  | inactive: -7.57%
8 | Cn1c(=O)c2cc(NC(=O)c3ccccc3Cl)c(=O)oc2n(C)c1=O | inconclusive: 10 µM [inhibitor, full curve, poor fit] | 
9 | Cc1cc(F)ccc1NC(=O)Cn1c(C)cc2nc3n(c(=O)c21)CCCCC3 | inconclusive: 31.6 µM [inhibitor, full curve, poor fit] | 
10 | COc1ccc(C(=O)/C=C2\C(=O)Nc3ccc(Br)cc32)cc1 | inconclusive: 10 µM [inhibitor, partial curve, poor fit] | 
11 | COc1ccccc1C(=O)Nc1cccc(C(=O)OCc2cc(=O)n3nc(C)sc3n2)c1 | inconclusive: 63.1 µM [inhibitor, partial curve, poor fit] | 
12 | C/C=C\C=C\C(=O)N1CC2(CC(c3cccc(NC(=O)CC)c3)=NO2)C[C@H]1C(N)=O (some centres undefined) |  | inactive: -9.12%
13 | Cc1oc2c(O)c(O)ccc2c(=O)c1-c1cnn(-c2ccccc2)c1 | inconclusive: 39.8 µM [inhibitor, partial curve, poor fit] | 
14 | N#C/C(=C\c1cccc(O)c1)C(=O)Nc1ccc2c(c1)OCCO2 |  | inactive: -12.5%
15 | CCc1nc2ccc(C(=O)Nc3ccc(OC)c(OC)c3)cn2c1N(C)Cc1ccc(N(C)C)cc1 |  | inactive: 5.51%
16 | Cc1c(Cl)cccc1NC(=O)Cn1nnc2sc3c(c2c1=O)CCCC3 |  | inactive: -13.2%
17 | Cn1cnnc1-c1nn(C)c2c1CN(C(=O)c1n[nH]c3c1CCCCCC3)CC2 |  | inactive: 71%
18 | Cn1c(N)c(C(=O)COC(=O)CSc2ccc3ccccc3c2)c(=O)n(C)c1=O |  | inactive: -1.82%
19 | O=C(COc1ncnc2c(Cl)cc(Cl)cc12)N1CCCCC1 | inconclusive: 56.2 µM [inhibitor, partial curve, poor fit] | 
20 | O=C(COc1ccc2c(=O)c(-c3ccccc3)coc2c1)Nc1ccc2c(c1)OCO2 | inconclusive: 112 µM [inhibitor, single point] | 
21 | O=C(Nc1cccc(Cl)c1Cl)c1cc(S(=O)(=O)NCCc2ccccc2)ccc1F | inactive | 
22 | CCCSC1=N/C(=C/c2ccsc2)C(=O)N1c1ccccc1 |  | inactive: -6.34%
23 | O=S1(=O)CC(N2CCC(Cc3ccccc3)CC2)CN1C1CCCCC1 (centres undefined) | inconclusive: 112 µM [inhibitor, single point] | 

Row | Structure (SMILES) | Potency | activity change, negative = inhibition
24 | CCCCCC(O)CCCC(=O)O (centres undefined) | inactive | 
25 | NC(=O)CSc1ncc2c(n1)-c1ccccc1N(Cc1ccc(Cl)cc1)S2(=O)=O | inconclusive: 112 µM [inhibitor, partial curve, poor fit] | 
26 | Cc1cccc(N=Nc2c(N)n[nH]c2-c2ccc(Cl)cc2)c1 |  | inactive: -0.71%
27 | CCOC(=O)c1cnc(-n2nc(C)cc2C)nc1Nc1cccc(C(=O)O)c1 | inconclusive: 0.631 µM [inhibitor, full curve, poor fit] | 
28 | Cc1ccc(S(=O)(=O)N2CC=C(N)N2)cc1 | inconclusive: 0.224 µM [inhibitor, full curve, poor fit] | 
29 | COc1ccc(-c2ccc(C(=S)N3CCN(C(C)=O)CC3)o2)cc1 | active: 14.1 µM | 
30 | COc1ccccc1NS(=O)(=O)c1ccc(C(N)=O)cc1 |  | inactive: 9.97%
31 | O=S1(=O)CC(O)C(NCc2ccco2)C1 (centres undefined) |  | inactive: -17%
32 | CCOC(=O)N1CCc2c(sc3c2C(=O)NC(c2cc(OC)c(O)c(OC)c2)N3)C1 (centres undefined) | inconclusive: 89.1 µM [inhibitor, partial curve, poor fit] | 
33 | CC1(C)Cc2c(sc3c2c(=O)n(CCCO)c(=O)n3CCc2ccccc2)CO1 |  | inactive: 52.7%
34 | COc1cc(CN2CCCCCC2)cc(Br)c1O | inconclusive: 0.794 µM [inhibitor, partial curve, poor fit] | 
35 | CC1C(=O)N(Cc2cn(CCC3OCCCO3)nn2)CCS(=O)(=O)N1Cc1ccc(-c2ccc(F)cc2)cc1 (centres undefined) | inconclusive: 50.1 µM [inhibitor, partial curve, poor fit] | 
36 | CC#CCN1C(=O)N[C@@H](c2ccccc2)C(C(=O)OC)=C1C |  | inactive: -29.4%
37 | CCN(CC)C(=O)CSc1nnc(-c2ccccc2)n1-c1ccccc1 | inconclusive: 141 µM [inhibitor, single point] | 
38 | CCOC(=O)CC1(O)CSc2nc(N)cc(=O)n21 (centres undefined) | inconclusive: 100 µM [inhibitor, partial curve, poor fit] | 
39 | N[C@@H]1CC[C@@H]1NC(=O)c1ccccc1OC(F)(F)C(F)F |  | inactive: 29.9%
40 | O=C(N=C(c1ccccc1)c1ccccc1)c1ccco1 |  | inactive: -14.1%
41 | Cc1ccc(/C=C2/NC(=O)N(Cc3ccccc3)C2=O)o1 | active: 31.6 µM | 
42 | CCOc1ccc(C2Cn3nnc(-c4nc(-c5ccc(C(F)(F)F)cc5)no4)c3CO2)cc1 (centres undefined) |  | inactive: 38.4%
43 | O=C(NC[C@H]1Cn2c(-c3ccccc3)cnc2CO1)c1ccccc1 |  | inactive: 17% [at 176 µM]
44 | N#Cc1cccc(NC(=O)N[C@H]2[C@H](O)[C@@H](N3CCCCC3)[C@@H]3OC[C@H]2O3)c1 | inconclusive: 28.2 µM [inhibitor, full curve] | 
45 | Cc1ccc(NC(=O)CC2SC(=O)N(c3ccccc3)C2=O)cc1 (centres undefined) | inconclusive: 5.01 µM [inhibitor, single point] | 
46 | c1cncc(-c2nc(NCC3COc4ccccc4O3)c3ccccc3n2)c1 (centres undefined) | inconclusive: 56.2 µM [inhibitor, partial curve, poor fit] | 

5 records picked at random from those above:
Row | Structure (SMILES) | Potency | activity change, negative = inhibition
42 | CCOc1ccc(C2Cn3nnc(-c4nc(-c5ccc(C(F)(F)F)cc5)no4)c3CO2)cc1 (centres undefined) |  | inactive: 38.4%
30 | COc1ccccc1NS(=O)(=O)c1ccc(C(N)=O)cc1 |  | inactive: 9.97%
36 | CC#CCN1C(=O)N[C@@H](c2ccccc2)C(C(=O)OC)=C1C |  | inactive: -29.4%
17 | Cn1cnnc1-c1nn(C)c2c1CN(C(=O)c1n[nH]c3c1CCCCCC3)CC2 |  | inactive: 71%
2 | Cc1ccc(NC(=O)[C@@H](C)NC(=O)[C@@H]2Cc3ccccc3CN2)cc1 |  | inactive: 11.3%

The list continues:

Row | Structure (SMILES) | Potency | activity change, negative = inhibition
47 | Cc1ccc(N=C2c3ccccc3C(=O)C2[N+](=O)[O-])cc1C (centres undefined) | inconclusive: 25.1 µM [inhibitor, partial curve, poor fit] | 
48 | Cc1oc(-c2cccc(Cl)c2)nc1CNC(=O)Nc1ccc(Cl)cc1 | inconclusive: 35.5 µM [inhibitor, partial curve, poor fit] | 
49 | CCOc1ccc(CC(=O)N2[C@@H]3CC[C@H]2CC(NC(=O)c2cnc(C)cn2)C3)cc1 (some centres undefined) |  | inactive: 38.6%
50 | CCCc1noc(-c2ccn3c(CNC(=O)c4ccc(C)c(C)c4)nnc3c2)n1 | inconclusive: 56.2 µM [inhibitor, partial curve, poor fit] | 
51 | Cc1nn(-c2ccc(C(=O)Nc3nnc(C4CC4)s3)cc2)c(C)c1Cl |  | inactive: 0%
52 | O=C(NNc1ccc(C(F)(F)F)cc1[N+](=O)[O-])c1ccc(NS(=O)(=O)c2ccc(F)cc2)cc1 | inconclusive: 4.47 µM [inhibitor, full curve, poor fit] | 
53 | COc1ccc(-c2cc(C(=O)NCc3ccc(F)cc3)c3ccccc3n2)c(OC)c1 | active: 15.8 µM | 
54 | COc1ccccc1-c1nccc2c(=O)cc(-c3ccccn3)oc12 | inconclusive: 22.4 µM [inhibitor, partial curve] | 
55 | CC[C@H]1CN(C(=O)C2CC2)CC[C@H]1CC(=O)NC1CC1 |  | inactive: 16.3% [at 176 µM]
56 | O=C(COc1ccccc1/C=C1\SC(=O)NC1=O)Nc1ccccc1 | inconclusive: 50.1 µM [inhibitor, partial curve, poor fit] | 
57 | O=C1C(Nc2ccccc2)=CC(c2ccccc2)N1c1ccccc1 (centres undefined) | inconclusive: 35.5 µM [inhibitor, single point] | 
58 | Cc1ccc(Cn2cnc3ccccc32)cc1C |  | inactive: 2.93%
59 | CCOC(=O)/C(=N\Nc1cc(Cl)ccc1Cl)N1CC(C)OC(C)C1 (centres undefined) |  | inactive: -10.7%
60 | O=C(CSc1nc2c([nH]c3ccccc32)c(=O)n1-c1cccc(Cl)c1)N1CCOCC1 | inconclusive: 70.8 µM [inhibitor, partial curve, poor fit] | 
61 | N#Cc1ccc(OCCN2CCCc3ccccc32)cc1 | inconclusive: 35.5 µM [inhibitor, partial curve, poor fit] | 
62 | CC(C)(C)Sc1ccc(/C=N/O)cc1[N+](=O)[O-] |  | inactive: 4.54%
63 | Cc1cccc(NC(=O)c2sc3nc4c(c(-c5cccs5)c3c2N)CN(C)CC4)c1 | inconclusive: 15.8 µM [inhibitor, partial curve, poor fit] | 
64 | Cc1oc2ccc(O)c(CN3CCN(C)CC3)c2c1C(=O)Nc1cccc(C(F)(F)F)c1 |  | inconclusive: -34.3% [inhibitor]
65 | O=C(COC(=O)c1ccc[nH]c1=O)NCCc1ccc(Cl)cc1Cl | inconclusive: 31.6 µM [inhibitor, single point] | 
66 | O=c1cc(CN2CCN(c3ccc(F)cc3)CC2)c2cc(O)ccc2o1 | inconclusive: 44.7 µM [inhibitor, partial curve, poor fit] | 
67 | COc1cc(C(=O)/C(=C/c2ccncc2)c2nc3ccccc3o2)cc(OC)c1OC | inconclusive: 44.7 µM [inhibitor, partial curve, poor fit] | 
68 | Cc1ccc(-n2c(C)cc3c2CCCC3=O)cc1 | inconclusive: 50.1 µM [inhibitor, partial curve, poor fit] | 
69 | COc1ccc(CN2CCc3nc(C(=O)NCc4cccc(F)c4)oc3CC2)cc1 | inconclusive: 56.2 µM [inhibitor, full curve] | 
